From the supplement of paper PMC7661543
Differences between knockout arms are mostly noise.

System: BT-20
Assay: relative cell number vs DMSO control (72 h) (% of DMSO); higher = less growth inhibition (more cells)
Procedure: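 QMAP-Seq: a pool of 5 breast cancer cell lines (ZR-75-1, SKBR3, HCC-38, MDA-MB-231, BT-20), each carrying 12 doxycycline-inducible Cas9 sgRNA perturbations (11 knockouts plus non-targeting sgNT), was treated with compounds for 72 h at four 10-fold doses (10 nM-10 uM or 1 nM-1 uM range). Barcodes were amplified and sequenced, and cell number was interpolated from 293T spike-in standard curves. The result is expressed as % of the median of DMSO wells. Two biological replicates.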

CC(C)CC(=O)Nc1n[nH]c2c1CN(C(=O)C1CCN(C)CC1)C2(C)C
Conditions	relative cell number
sgRNA knockout: sgATF3, 10 nM	97.7
sgRNA knockout: sgATF3, 100 nM	72.3
sgRNA knockout: sgATF3, 1000 nM	38.2
sgRNA knockout: sgATF3, 10000 nM	28.3
sgRNA knockout: sgATF4, 10 nM	114
sgRNA knockout: sgATF4, 100 nM	72.4
sgRNA knockout: sgATF4, 1000 nM	39.4
sgRNA knockout: sgATF4, 10000 nM	27.3
sgRNA knockout: sgATF6, 10 nM	105
sgRNA knockout: sgATF6, 100 nM	69.1
sgRNA knockout: sgATF6, 1000 nM	39
sgRNA knockout: sgATF6, 10000 nM	30.8
sgRNA knockout: sgATG7, 10 nM	110
sgRNA knockout: sgATG7, 100 nM	80.5
sgRNA knockout: sgATG7, 1000 nM	38.6
sgRNA knockout: sgATG7, 10000 nM	27.4
sgRNA knockout: sgERN1, 10 nM	92.5
sgRNA knockout: sgERN1, 100 nM	80.4
sgRNA knockout: sgERN1, 1000 nM	39.1
sgRNA knockout: sgERN1, 10000 nM	28.1
sgRNA knockout: sgHSF1, 10 nM	105
sgRNA knockout: sgHSF1, 100 nM	72.6
sgRNA knockout: sgHSF1, 1000 nM	40.5
sgRNA knockout: sgHSF1, 10000 nM	29
sgRNA knockout: sgHSF2, 10 nM	113
sgRNA knockout: sgHSF2, 100 nM	75.3
sgRNA knockout: sgHSF2, 1000 nM	45
sgRNA knockout: sgHSF2, 10000 nM	26.8
sgRNA knockout: sgKEAP1, 10 nM	91.4
sgRNA knockout: sgKEAP1, 100 nM	77.9
sgRNA knockout: sgKEAP1, 1000 nM	34.3
sgRNA knockout: sgKEAP1, 10000 nM	27.2
sgRNA knockout: sgNFE2L2, 10 nM	112
sgRNA knockout: sgNFE2L2, 100 nM	64.7
sgRNA knockout: sgNFE2L2, 1000 nM	40.2
sgRNA knockout: sgNFE2L2, 10000 nM	30.3
sgRNA knockout: sgSLC35F2, 10 nM	98.8
sgRNA knockout: sgSLC35F2, 100 nM	65.3
sgRNA knockout: sgSLC35F2, 1000 nM	47.2
sgRNA knockout: sgSLC35F2, 10000 nM	26.1
sgRNA knockout: sgXBP1, 10 nM	108
sgRNA knockout: sgXBP1, 100 nM	73
sgRNA knockout: sgXBP1, 1000 nM	43
sgRNA knockout: sgXBP1, 10000 nM	26.1

Fc1ccc(CNc2ncnc3ccc(F)cc23)cc1 [Spautin1]
Conditions	relative cell number
sgRNA knockout: sgATF3, 10 nM	98.89
sgRNA knockout: sgATF3, 100 nM	90.7
sgRNA knockout: sgATF3, 1000 nM	98.9
sgRNA knockout: sgATF3, 10000 nM	93.7
sgRNA knockout: sgATF4, 10 nM	108
sgRNA knockout: sgATF4, 100 nM	92.5
sgRNA knockout: sgATF4, 1000 nM	99.59
sgRNA knockout: sgATF4, 10000 nM	92
sgRNA knockout: sgATF6, 10 nM	93.6
sgRNA knockout: sgATF6, 100 nM	94.3
sgRNA knockout: sgATF6, 1000 nM	99.72
sgRNA knockout: sgATF6, 10000 nM	104
sgRNA knockout: sgATG7, 10 nM	90.8
sgRNA knockout: sgATG7, 100 nM	92.7
sgRNA knockout: sgATG7, 1000 nM	104
sgRNA knockout: sgATG7, 10000 nM	98.3
sgRNA knockout: sgERN1, 10 nM	92.9
sgRNA knockout: sgERN1, 100 nM	100
sgRNA knockout: sgERN1, 1000 nM	99.6
sgRNA knockout: sgERN1, 10000 nM	94.8
sgRNA knockout: sgHSF1, 10 nM	113
sgRNA knockout: sgHSF1, 100 nM	99.5
sgRNA knockout: sgHSF1, 1000 nM	101
sgRNA knockout: sgHSF1, 10000 nM	95.9
sgRNA knockout: sgHSF2, 10 nM	83.4
sgRNA knockout: sgHSF2, 100 nM	82
sgRNA knockout: sgHSF2, 1000 nM	90.9
sgRNA knockout: sgHSF2, 10000 nM	111
sgRNA knockout: sgKEAP1, 10 nM	113
sgRNA knockout: sgKEAP1, 100 nM	80.7
sgRNA knockout: sgKEAP1, 1000 nM	93.2
sgRNA knockout: sgKEAP1, 10000 nM	91.4
sgRNA knockout: sgNFE2L2, 10 nM	93.6
sgRNA knockout: sgNFE2L2, 100 nM	95.9
sgRNA knockout: sgNFE2L2, 1000 nM	106
sgRNA knockout: sgNFE2L2, 10000 nM	106
sgRNA knockout: sgSLC35F2, 10 nM	99.4
sgRNA knockout: sgSLC35F2, 100 nM	98.7
sgRNA knockout: sgSLC35F2, 1000 nM	95
sgRNA knockout: sgSLC35F2, 10000 nM	95.4
sgRNA knockout: sgXBP1, 10 nM	112
sgRNA knockout: sgXBP1, 100 nM	94.8
sgRNA knockout: sgXBP1, 1000 nM	105
sgRNA knockout: sgXBP1, 10000 nM	99.6
